No constants are given. Whether binding was seen depends on the method and setting. In cells and extracts the contact can be indirect.
Columns and labels:
[1] = molecular target: TEAD1 (human (endogenous in OMM1.3 and UM004)) (UniProt P28347); assay: co-IP
[2] = molecular target: YAP1 (human (endogenous in OMM1.3 and UM004)) (UniProt P46937); assay: co-IP

Sequences of proteins named here, by UniProt entry; tags and fusion partners are left off.
UniProt P28347: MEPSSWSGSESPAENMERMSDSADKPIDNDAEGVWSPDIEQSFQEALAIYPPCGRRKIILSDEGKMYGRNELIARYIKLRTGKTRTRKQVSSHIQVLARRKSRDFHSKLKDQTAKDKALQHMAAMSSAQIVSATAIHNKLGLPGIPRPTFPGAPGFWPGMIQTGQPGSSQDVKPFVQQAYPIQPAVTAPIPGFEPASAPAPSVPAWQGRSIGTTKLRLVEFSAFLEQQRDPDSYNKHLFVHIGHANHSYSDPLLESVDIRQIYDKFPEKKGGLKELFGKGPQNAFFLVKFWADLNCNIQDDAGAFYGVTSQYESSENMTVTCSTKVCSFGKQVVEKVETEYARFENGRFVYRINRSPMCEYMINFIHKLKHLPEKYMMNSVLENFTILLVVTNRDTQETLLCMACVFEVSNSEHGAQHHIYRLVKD
UniProt P46937: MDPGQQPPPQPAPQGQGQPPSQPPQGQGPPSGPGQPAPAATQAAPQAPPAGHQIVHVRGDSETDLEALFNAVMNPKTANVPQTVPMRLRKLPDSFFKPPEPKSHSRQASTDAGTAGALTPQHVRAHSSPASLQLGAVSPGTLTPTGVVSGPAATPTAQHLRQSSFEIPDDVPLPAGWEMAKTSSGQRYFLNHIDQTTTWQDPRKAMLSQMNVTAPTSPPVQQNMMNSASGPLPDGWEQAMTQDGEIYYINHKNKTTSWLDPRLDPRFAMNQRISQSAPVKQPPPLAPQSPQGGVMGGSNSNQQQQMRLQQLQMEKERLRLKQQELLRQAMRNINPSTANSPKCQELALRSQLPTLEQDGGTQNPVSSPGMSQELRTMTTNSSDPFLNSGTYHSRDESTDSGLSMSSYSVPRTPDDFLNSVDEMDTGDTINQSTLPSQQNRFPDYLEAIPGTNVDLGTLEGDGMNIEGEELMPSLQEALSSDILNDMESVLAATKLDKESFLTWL

B1: NR2F1 (protein, UniProt P10589 1-423)
chain: MAMVVSSWRDPQDDVAGGNPGGPNPAAQAARGGGGGAGEQQQQAGSGAPHTPQTPGQPGAPATPGTAGDKGQGPPGSGQSQQHIECVVCGDKSSGKHYGQFTCEGCKSFFKRSVRRNLTYTCRANRNCPIDQHHRNQCQYCRLKKCLKVGMRREAVQRGRMPPTQPNPGQYALTNGDPLNGHCYLSGYISLLLRAEPYPTSRYGSQCMQPNNIMGIENICELAARLLFSAVEWARNIPFFPDLQITDQVSLLRLTWSELFVLNAAQCSMPLHVAPLLAAAGLHASPMSADRVVAFMDHIRIFQEQVEKLKALHVDSAEYSCLKAIVLFTSDACGLSDAAHIESLQEKSQCALEEYVRSQYPNQPSRFGKLLLRLPSLRTVSSSVIEQLFFVRLVGKTPIETLIRDMLLSGSSFNWPYMSIQCS
binding [1]: no binding
binding [2]: no binding

Source: doi:10.1101/2024.03.05.583565
